Test results as given in PMC7578830.
Results are given in words; binding and its absence hold for the method and conditions named. In cells and extracts the contact can be indirect. A yes stands for co-enrichment or nearness to the bait. Other partners may have been found. For some assays here: A no says only that the protein was not detected with the bait. For some assays here: Tags and fused reporters may be left off the sequences shown.

The chains behind the UniProt entries cited, without tags or fusion partners.
UniProt Q8I8U7: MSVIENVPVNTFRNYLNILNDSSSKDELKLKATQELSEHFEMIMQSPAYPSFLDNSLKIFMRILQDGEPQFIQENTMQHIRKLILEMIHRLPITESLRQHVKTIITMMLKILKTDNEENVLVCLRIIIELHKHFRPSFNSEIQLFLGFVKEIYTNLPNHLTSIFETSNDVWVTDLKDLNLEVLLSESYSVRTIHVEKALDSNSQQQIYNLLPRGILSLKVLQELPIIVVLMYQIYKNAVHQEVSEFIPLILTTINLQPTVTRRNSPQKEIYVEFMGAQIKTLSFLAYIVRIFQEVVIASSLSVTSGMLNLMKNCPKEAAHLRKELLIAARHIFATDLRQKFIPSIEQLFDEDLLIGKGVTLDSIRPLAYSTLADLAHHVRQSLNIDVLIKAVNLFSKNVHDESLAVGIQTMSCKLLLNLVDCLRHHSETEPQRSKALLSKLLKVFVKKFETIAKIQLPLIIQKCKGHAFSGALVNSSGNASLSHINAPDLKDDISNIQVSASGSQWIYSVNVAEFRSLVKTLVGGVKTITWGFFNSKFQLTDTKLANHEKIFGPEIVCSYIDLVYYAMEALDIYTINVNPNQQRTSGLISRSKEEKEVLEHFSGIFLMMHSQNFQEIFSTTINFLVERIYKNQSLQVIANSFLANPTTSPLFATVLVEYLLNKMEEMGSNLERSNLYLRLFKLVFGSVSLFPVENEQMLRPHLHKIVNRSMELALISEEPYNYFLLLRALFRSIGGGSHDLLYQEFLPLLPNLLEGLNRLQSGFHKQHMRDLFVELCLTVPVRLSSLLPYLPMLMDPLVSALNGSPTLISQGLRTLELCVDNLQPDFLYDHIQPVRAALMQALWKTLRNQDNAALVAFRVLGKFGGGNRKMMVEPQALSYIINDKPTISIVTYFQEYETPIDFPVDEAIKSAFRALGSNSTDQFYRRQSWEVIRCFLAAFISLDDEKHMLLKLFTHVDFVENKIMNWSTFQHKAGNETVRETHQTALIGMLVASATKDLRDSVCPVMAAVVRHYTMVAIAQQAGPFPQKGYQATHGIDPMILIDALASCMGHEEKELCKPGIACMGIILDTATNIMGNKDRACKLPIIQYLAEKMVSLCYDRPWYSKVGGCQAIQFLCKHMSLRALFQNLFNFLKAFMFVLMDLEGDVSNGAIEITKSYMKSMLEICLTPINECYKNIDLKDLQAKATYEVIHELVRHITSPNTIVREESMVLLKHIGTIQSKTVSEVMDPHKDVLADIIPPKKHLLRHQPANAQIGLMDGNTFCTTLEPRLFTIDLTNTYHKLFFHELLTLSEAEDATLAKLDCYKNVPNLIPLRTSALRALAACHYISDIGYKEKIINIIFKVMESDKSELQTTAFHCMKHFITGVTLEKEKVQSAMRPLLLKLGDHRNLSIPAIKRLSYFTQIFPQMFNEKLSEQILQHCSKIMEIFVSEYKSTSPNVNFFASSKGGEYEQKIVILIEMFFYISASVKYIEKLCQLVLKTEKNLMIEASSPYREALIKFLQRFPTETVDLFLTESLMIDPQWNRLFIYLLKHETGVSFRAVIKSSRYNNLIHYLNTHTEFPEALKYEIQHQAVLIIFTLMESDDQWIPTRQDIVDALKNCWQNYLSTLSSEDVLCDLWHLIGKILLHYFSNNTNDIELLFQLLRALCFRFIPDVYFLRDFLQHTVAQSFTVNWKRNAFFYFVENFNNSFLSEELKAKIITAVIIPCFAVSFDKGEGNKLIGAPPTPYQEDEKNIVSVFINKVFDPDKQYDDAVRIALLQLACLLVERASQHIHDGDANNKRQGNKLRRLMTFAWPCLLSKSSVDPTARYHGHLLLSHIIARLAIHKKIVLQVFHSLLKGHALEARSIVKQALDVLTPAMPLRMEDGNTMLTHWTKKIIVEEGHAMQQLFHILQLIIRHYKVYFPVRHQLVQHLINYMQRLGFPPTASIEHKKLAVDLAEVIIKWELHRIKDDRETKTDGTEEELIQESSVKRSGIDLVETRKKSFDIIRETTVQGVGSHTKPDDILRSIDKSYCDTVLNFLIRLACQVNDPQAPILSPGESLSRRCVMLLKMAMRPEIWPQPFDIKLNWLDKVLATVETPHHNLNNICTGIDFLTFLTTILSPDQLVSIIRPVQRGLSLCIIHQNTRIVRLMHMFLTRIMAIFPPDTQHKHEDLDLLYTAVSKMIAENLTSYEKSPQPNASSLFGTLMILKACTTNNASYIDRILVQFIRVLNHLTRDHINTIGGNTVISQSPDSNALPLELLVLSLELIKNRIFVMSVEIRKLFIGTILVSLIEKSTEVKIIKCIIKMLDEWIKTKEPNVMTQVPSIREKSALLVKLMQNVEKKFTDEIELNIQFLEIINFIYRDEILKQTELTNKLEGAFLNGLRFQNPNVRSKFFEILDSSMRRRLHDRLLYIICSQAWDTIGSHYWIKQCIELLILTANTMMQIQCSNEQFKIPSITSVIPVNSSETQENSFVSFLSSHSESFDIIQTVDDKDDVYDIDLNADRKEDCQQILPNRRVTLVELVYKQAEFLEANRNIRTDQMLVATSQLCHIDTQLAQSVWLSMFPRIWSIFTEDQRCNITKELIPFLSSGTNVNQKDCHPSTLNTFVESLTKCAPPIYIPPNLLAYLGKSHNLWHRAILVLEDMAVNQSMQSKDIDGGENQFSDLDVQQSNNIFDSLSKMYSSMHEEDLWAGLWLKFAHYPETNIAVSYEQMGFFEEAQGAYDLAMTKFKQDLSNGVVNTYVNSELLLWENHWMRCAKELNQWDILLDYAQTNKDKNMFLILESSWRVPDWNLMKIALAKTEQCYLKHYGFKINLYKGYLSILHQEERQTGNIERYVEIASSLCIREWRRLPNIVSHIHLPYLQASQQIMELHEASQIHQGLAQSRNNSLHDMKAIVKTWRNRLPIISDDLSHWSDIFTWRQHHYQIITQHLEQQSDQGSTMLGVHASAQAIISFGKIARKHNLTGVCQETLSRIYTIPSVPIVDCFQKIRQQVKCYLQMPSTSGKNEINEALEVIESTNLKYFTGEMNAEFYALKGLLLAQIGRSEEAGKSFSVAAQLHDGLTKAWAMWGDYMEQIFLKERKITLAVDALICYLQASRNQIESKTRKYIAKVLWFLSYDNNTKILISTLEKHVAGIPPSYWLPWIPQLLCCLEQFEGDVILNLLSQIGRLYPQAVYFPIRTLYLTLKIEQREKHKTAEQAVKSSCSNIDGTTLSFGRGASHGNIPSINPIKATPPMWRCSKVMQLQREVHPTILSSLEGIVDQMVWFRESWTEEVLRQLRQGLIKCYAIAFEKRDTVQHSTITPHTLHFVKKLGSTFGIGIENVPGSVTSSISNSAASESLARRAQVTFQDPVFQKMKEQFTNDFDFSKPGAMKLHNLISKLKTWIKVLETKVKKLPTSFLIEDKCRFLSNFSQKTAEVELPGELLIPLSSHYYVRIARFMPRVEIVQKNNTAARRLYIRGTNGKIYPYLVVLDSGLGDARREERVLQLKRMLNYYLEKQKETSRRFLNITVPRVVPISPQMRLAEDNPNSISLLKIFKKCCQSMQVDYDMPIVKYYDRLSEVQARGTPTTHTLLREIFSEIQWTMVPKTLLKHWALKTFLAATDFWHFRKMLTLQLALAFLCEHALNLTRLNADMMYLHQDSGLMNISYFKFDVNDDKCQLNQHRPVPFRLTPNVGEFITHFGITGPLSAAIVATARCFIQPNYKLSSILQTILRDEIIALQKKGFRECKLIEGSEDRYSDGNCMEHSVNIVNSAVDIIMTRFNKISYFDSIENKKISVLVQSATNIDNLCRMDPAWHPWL
UniProt O61735: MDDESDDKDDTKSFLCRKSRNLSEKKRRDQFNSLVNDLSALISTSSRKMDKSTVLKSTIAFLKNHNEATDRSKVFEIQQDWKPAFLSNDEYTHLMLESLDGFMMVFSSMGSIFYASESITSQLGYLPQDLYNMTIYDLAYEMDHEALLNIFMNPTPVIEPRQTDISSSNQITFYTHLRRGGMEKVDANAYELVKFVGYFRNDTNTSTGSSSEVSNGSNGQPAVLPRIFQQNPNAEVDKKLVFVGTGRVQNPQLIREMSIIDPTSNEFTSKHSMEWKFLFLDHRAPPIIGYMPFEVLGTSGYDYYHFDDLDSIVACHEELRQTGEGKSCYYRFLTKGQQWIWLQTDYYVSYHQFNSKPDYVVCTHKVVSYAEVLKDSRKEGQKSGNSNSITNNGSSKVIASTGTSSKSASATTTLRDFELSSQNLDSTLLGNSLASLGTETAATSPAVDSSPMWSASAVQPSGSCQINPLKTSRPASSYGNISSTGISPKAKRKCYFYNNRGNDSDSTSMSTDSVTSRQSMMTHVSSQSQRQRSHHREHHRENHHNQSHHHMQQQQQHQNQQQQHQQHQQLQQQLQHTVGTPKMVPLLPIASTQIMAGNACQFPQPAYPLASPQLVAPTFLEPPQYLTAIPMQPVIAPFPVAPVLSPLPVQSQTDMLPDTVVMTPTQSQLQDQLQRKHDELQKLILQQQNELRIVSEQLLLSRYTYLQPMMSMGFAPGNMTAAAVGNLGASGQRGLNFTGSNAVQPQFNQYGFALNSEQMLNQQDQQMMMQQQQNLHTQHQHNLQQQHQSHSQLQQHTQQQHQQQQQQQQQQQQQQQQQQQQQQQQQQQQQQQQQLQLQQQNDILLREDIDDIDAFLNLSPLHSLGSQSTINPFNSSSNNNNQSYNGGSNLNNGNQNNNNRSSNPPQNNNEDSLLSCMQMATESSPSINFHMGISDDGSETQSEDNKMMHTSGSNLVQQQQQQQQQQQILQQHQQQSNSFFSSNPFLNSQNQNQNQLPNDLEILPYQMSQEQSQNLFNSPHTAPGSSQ
UniProt Q27889: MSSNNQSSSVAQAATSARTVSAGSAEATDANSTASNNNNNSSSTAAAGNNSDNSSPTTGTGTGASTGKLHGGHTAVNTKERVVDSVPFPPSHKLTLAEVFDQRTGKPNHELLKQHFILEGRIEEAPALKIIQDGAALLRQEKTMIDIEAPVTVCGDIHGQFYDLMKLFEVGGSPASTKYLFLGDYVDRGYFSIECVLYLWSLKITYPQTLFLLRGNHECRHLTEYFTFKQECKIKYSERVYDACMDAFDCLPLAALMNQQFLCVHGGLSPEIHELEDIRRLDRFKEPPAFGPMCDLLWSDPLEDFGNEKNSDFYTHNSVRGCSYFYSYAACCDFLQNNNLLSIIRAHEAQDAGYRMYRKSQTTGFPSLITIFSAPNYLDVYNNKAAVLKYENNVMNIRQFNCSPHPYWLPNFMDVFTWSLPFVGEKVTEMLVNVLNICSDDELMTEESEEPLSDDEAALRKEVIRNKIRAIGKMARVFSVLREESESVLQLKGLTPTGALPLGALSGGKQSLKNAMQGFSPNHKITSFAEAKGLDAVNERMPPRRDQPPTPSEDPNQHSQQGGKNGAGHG
UniProt P48461: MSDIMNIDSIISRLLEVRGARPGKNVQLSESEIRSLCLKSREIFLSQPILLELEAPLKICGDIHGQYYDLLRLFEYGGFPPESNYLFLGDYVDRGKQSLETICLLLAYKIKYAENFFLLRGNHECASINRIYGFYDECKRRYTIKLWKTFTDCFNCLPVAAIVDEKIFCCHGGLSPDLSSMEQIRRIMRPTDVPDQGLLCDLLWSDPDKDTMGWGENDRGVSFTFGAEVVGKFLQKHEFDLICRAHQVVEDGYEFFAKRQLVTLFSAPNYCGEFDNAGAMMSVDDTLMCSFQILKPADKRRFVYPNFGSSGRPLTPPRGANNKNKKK
UniProt O76324: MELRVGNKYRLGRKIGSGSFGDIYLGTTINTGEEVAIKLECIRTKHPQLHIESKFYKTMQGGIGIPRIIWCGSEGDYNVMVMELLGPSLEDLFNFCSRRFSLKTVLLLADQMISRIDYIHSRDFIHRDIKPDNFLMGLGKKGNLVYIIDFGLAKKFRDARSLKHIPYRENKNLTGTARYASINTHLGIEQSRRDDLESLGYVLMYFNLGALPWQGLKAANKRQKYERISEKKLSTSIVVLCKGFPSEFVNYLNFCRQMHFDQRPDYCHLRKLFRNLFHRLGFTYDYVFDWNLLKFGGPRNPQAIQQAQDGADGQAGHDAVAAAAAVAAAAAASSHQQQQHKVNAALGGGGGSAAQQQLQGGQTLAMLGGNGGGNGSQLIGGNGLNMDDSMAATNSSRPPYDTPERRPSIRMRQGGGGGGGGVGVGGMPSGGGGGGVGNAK

B1: TIMELESS (protein, UniProt P49021 1-1398)
chain: MDWLLATPQLYSAFSSLGCLEGDTYVVNPNALAILEEINYKLTYEDQTLRTFRRAIGFGQNVRSDLIPLLENAKDDAVLESVIRILVNLTVPVECLFSVDVMYRTDVGRHTIFELNKLLYTSKEAFTEARSTKSVVEYMKHILESDPKLSPHKCDQINNCLLLLRNILHIPETHAHCVMPMMQSMPHGISMQNTILWNLFIQSIDKLLLYLMTCPQRAFWGVTMVQLIALIYKDQHVSTLQKLLSLWFEASLSESSEDNESNTSPPKQGSGDSSPMLTSDPTSDSSDNGSNGRGMGGGMREGTAATLQEVSRKGQEYQNAMARVPADKPDGSEEASDMTGNDSEQPGSPEQSQPAGESMDDGDYEDQRHRQLNEHGEEDEDEDEVEEEEYLQLGPASEPLNLTQQPADKVNNTTNPTSSAPQGCLGNEPFKPPPPLPVRASTSAHAQMQKFNESSYASHVSAVKLGQKSPHAGQLQLTKGKCCPQKRECPSSQSELSDCGYGTQVENQESISTSSNDDDGPQGKPQHQKPPCNTKPRNKPRTIMSPMDKKELRRKKLVKRSKSSLINMKGLVQHTPTDDDISNLLKEFTVDFLLKGYSYLVEELHMQLLSNAKVPIDTSHFFWLVTYFLKFAAQLELDMEHIDTILTYDVLSYLTYEGVSLCEQLELNARQEGSDLKPYLRRMHLVVTAIREFLQAIDTYNKVTHLNEDDKAHLRQLQLQISEMSDLRCLFVLLLRRFNPSIHSKQYLQDLVVTNHILLLILDSSAKLGGCQTIRLSEHITQFATLEVMHYYGILLEDFNNNGEFVNDCIFTMMHHIGGDLGQIGVLFQPIILKTYSRIWEADYELCDDWSDLIEYVIHKFMNTPPKSPLTIPTTSLTEMTKEHNQEHTVCSWSQEEMDTLYWYYVQSKKNNDIVGKIVKLFSNNGNKLKTRISIIQQLLQQDIITLLEYDDLMKFEDAEYQRTLLTTPTSATTESGIEIKECAYGKPSDDVQILLDLIIKENKAQHLLWLQRILIECCFVKLTLRSGLKVPEGDHIMEPVAYHCICKQKSIPVVQWNNEQSTTMLYQPFVLLLHKLGIQLPADAGSIFARIPDYWTPETMYGLAKKLGPLDKLNLKFDASELEDATASSPSRYHHTGPRNSLSSVSSLDVDLGDTEELALIPEVDAAVEKAHAMASTPSPSEIFAVPKTKHCNSIIRYTPDPTPPVPNWLQLVMRSKCNHRTGPSGDPSDCIGSSSTTVDDEGFGKSISAATSQAASTSMSTVNPTTTLSLNMLNTFMGSHNENSSSSGCGGTVSSLSMVALMSTGAAGGGGNTSGLEMDVDASMKSSFERLEVNGSHFSRANNLDQEYSAMVASVYEKEKELNSDNVSLASDLTRMYVSDEDDRLERTEIRVPHYH
B2: CYCLE (protein, UniProt O61734 1-413)
chain: MEVQEFCENMEEIEDENYDEEKSARTSDENRKQNHSEIEKRRRDKMNTYINELSSMIPMCFAMQRKLDKLTVLRMAVQHLRGIRGSGSLHPFNGSDYRPSFLSDQELKMIILQASEGFLFVVGCDRGRILYVSDSVSSVLNSTQADLLGQSWFDVLHPKDIGKVKEQLSSLEQCPRERLIDAKTMLPVKTDVPQSLCRLCPGARRSFFCRMKLRTASNNQIKEESDTSSSSRSSTKRKSRLTTGHKYRVIQCTGYLKSWTPIKDEDQDADSDEQTTNLSCLVAIGRIPPNVRNSTVPASLDNHPNIRHVLFISRHSGEGKFLFIDQRATLVIGFLPQEILGTSFYEYFHNEDIAALMESHKMVMQVPEKVTTQVYRFRCKDNSYIQLQSEWRAFKNPWTSEIDYIIAKNSVFL
B3: UCH (enzyme, UniProt P35122 1-227)
chain: MLTWTPLESNPEVLTKYIHKLGVSPAWSVTDVIGLEDDTLEWIPRPVKAFILLFPCSETYEKHRAEEHDRIKEVEEQHPEDLFYMRQFTHNACGTVALIHSVANNKEVDIDRGVLKDFLEKTASLSPEERGRALEKDEKFTADHEALAQEGQTNAANHEKVIHHFIALVNKEGTLYELDGRKSFPIKHGPTSEETFVKDAAKVCKEFMARDPNEVRFTVLALTAAQQ
B4: UBC6 (enzyme, UniProt P25153 1-151)
chain: MSTPARRRLMRDFKRLQEDPPTGVSGAPTDNNIMIWNAVIFGPHDTPFEDGTFKLTIEFTEEYPNKPPTVRFVSKVFHPNVYADGGICLDILQNRWSPTYDVSAILTSIQSLLSDPNPNSPANSTAAQLYKENRREYEKRVKACVEQSFID
B5: PPD3 (enzyme, UniProt Q9VH81 1-520)
chain: MSSSELEVQKAADCQQEAKVPASVEITGSKQPEEDTNARTKAELDFAAAEQYKNQGNEMLKTKEFSKAIDMYTKAIELHPNSAIYYANRSLAHLRQESFGFALQDGVSAVKADPAYLKGYYRRAAAHMSLGKFKQALCDFEFVAKCRPNDKDAKLKFTECNKIVKMRAFERAIAVDKPEKTLSEMYSDMENITIEDDYKGPQLEDGKVTLKFMKELMEHYKAQKRLHRKFAYKILCEIDTYMRAQPSLVDITVPDEEKFTICGDIHGQFYDLMNIFEINGLPSEKNPYLFNGDFVDRGSFSVECIFTLFGFKLLYPNHFFLARGNHESINMNQMYGFTGEVTAKYTSAMADIFTQVFNWLPLCHCINQKILVMHGGLFSTEDVTLDHIRRIERNCQPPEEGLMCELLWSDPQQWMGLGQSKRGVGIQFGPDVTEKFCKDNNLDYIIRSHEVKDMGYEVAHNGKCITVFSAPNYCDTMGNMGAFITITGNNLKPNYKSFEAVPHPDVKPMAYANSLMNWLA
B6: protein phosphatase PRL-1 (enzyme, UniProt O61722 1-176)
chain: MSITMRQKDLRPAPALIEYKGMKFLITDRPSDITINHYIMELKKNNVNTVVRVCEPSYNTDELETQGITVKDLAFEDGTFPPQQVVDEWFEVLKDKYQQNPEACVAVHCVAGLGRAPVLVALALIELGLKYEAAVEMIRDKRRGAINAKQLSFLEKYKPKARLKHKNGHKNSCSVQ

These molecules were tested against T1, FLAG-tagged CYC (Drosophila melanogaster) (UniProt O61734) (assay: affinity purification with mass spectrometry; FLAG-CYC immunoprecipitated from heads of w; FLAG-cyc; cyc^01 flies collected at ZT24, LC/MS/MS).
T1 sequence: B2 chain

Molecule | binding
PERIOD (from UniProt P07663 1-1218) | binds
NIPPED-A (from UniProt Q8I8U7 1-3790) | binds
CLOCK (from UniProt O61735 1-1027) | binds
B1 | binds

What follows are molecules tested against GFP tagged CLOCK (CLK) protein (Drosophila melanogaster) (UniProt O61735) (assay: affinity purification with mass spectrometry; GFP-CLK (or the GFP control) captured from fly head extracts on GFP nanobody beads (ChromoTek) overnight at 4 °C, washed three times with cold EB3 buffer; flies entrained in LD and collected at ZT0 (ZT24), ZT6, ZT9, ZT12, ZT16 and ZT20; LC/MS/MS once for each time point).

Molecule | binding
ISWI (from UniProt Q24368 1-1027) | binds
PP2B-14D (from UniProt Q27889 1-570) (enzyme) | binds
PP1alpha-96A (from UniProt P48461 1-327) (enzyme) | binds
DBT kinase (from UniProt O76324 1-440) (enzyme) | binds
PERIOD (from UniProt P07663 1-1218) | binds
SHAGGY (SGG) kinase (from UniProt P18431 1-514) (enzyme) | no binding
CRYPTOCHROME (from UniProt O77059 1-542) | no binding

Target: GFP tagged CLOCK (CLK) protein (Drosophila melanogaster) (UniProt O61735)
Assay: as above
Remark: another data set of the same source

Molecule | binding
B2 | binds
B3 | binds
B4 | binds
B5 | binds
B1 | binds
B6 | binds
